# Laboratory results taken from patent US10087404B2, “Biological corrosion inhibitor for metals” (KURARAY CO., LTD., priority 2014, dated 2018).
# System: activated sludge
# Experiment: Biodegradability test (OECD test guideline 301C, JIS K 6950) with activated sludge
# Settings: high concentration group (100 ppm)
smiles,measurement,setting,value
Nc1ccccc1 [aniline],biodegradation rate in 28 days,"25° C., activated sludge 30 ppm",≥ 60%
same,degradability determination,28 days,"highly degradable (When the biodegradation rate was 60% or more, the substance was determined as a highly degradable substance)"
